Test results as given in paper PMC2935449.

The chains behind the UniProt entries cited, without tags or fusion partners.
UniProt P41878: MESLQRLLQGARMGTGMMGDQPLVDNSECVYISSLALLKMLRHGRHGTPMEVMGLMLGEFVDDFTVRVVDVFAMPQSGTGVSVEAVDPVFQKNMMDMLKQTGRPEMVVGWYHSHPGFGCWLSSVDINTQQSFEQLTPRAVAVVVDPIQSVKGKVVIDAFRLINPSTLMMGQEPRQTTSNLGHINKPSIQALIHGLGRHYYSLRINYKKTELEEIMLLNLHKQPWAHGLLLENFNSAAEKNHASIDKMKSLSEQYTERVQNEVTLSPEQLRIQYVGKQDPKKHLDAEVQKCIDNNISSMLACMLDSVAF
UniProt Q9P7H8: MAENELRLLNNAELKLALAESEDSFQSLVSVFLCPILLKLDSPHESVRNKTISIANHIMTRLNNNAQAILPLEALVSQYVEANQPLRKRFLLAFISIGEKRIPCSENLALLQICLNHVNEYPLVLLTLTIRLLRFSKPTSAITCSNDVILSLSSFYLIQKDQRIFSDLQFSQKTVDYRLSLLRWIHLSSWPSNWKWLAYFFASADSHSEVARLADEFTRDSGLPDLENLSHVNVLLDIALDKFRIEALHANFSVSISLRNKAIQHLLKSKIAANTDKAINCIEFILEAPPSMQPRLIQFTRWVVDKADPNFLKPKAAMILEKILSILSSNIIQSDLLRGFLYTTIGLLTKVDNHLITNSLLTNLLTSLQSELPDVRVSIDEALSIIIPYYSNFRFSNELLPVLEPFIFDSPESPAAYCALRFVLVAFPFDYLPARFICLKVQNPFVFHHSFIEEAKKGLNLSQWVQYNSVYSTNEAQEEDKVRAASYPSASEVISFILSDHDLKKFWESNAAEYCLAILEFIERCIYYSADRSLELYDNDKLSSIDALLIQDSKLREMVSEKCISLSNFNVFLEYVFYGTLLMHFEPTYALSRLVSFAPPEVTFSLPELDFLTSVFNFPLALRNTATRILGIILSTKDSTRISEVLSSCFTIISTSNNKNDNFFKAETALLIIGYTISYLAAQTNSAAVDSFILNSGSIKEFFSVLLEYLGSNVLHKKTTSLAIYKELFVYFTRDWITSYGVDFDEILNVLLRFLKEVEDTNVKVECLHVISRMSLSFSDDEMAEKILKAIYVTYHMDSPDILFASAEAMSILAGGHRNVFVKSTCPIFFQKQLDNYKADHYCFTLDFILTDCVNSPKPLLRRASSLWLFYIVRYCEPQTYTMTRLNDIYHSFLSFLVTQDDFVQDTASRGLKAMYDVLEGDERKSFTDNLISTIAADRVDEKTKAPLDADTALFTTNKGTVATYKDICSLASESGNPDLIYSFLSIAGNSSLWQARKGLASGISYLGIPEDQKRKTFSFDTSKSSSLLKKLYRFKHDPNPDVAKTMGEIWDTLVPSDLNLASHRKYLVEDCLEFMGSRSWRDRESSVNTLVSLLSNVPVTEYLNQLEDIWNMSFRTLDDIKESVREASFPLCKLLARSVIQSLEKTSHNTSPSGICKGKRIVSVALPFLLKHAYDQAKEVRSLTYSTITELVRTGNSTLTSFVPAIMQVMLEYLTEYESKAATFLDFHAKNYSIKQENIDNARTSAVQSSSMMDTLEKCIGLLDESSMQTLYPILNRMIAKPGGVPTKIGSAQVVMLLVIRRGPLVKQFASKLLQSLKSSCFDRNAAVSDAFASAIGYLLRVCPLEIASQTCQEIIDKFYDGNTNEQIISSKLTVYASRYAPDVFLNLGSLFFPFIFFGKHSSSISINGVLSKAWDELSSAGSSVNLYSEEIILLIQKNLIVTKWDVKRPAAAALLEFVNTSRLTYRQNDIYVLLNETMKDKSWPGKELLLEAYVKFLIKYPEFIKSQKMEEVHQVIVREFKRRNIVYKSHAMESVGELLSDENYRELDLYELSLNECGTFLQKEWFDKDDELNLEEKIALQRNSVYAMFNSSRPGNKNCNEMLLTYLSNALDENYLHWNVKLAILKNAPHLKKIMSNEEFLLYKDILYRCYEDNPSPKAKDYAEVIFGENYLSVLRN

Columns and labels:
Otu1-TAP (S. pombe) = molecular target: T1, Otu1-TAP (S. pombe) (UniProt O13974); experiment: affinity purification with mass spectrometry; bait endogenously TAP-tagged at its C-terminus, tandem affinity purification from native S. pombe lysate, co-purified proteins identified by 2D LC-MS/MS; duplicates, only proteins found in both replicates
T1 sequence: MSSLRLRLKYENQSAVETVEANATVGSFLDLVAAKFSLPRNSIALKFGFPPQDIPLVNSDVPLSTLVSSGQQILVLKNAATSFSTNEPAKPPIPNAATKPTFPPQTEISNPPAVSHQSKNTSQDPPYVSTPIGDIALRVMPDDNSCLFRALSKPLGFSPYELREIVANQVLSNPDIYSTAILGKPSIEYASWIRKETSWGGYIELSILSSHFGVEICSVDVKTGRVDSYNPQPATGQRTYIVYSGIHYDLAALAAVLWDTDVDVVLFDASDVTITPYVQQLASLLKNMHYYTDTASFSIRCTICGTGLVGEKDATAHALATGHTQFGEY

Rpn11-TAP (S. pombe) = Rpn11-TAP (S. pombe) (UniProt P41878); experiment: as above
Uch2-TAP (S. pombe) = molecular target: T2, Uch2-TAP (S. pombe) (UniProt Q9UUB6); experiment: as above
T2 sequence: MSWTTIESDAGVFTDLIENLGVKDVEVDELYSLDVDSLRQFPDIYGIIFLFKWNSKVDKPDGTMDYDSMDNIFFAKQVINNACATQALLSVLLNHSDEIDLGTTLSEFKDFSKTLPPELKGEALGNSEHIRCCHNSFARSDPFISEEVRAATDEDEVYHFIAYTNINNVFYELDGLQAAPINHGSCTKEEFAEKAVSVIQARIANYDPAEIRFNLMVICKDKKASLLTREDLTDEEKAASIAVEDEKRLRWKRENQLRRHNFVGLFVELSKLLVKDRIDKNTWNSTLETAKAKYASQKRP

TAP-Ubp1 (S. pombe) = molecular target: T3, TAP-Ubp1 (S. pombe) (UniProt Q9USM5); experiment: affinity purification with mass spectrometry; bait N-terminally TAP-tagged, expressed at low levels from the nmt81 promoter (pREP81-TAP), tandem affinity purification from native S. pombe lysate, 2D LC-MS/MS; duplicates
T3 sequence: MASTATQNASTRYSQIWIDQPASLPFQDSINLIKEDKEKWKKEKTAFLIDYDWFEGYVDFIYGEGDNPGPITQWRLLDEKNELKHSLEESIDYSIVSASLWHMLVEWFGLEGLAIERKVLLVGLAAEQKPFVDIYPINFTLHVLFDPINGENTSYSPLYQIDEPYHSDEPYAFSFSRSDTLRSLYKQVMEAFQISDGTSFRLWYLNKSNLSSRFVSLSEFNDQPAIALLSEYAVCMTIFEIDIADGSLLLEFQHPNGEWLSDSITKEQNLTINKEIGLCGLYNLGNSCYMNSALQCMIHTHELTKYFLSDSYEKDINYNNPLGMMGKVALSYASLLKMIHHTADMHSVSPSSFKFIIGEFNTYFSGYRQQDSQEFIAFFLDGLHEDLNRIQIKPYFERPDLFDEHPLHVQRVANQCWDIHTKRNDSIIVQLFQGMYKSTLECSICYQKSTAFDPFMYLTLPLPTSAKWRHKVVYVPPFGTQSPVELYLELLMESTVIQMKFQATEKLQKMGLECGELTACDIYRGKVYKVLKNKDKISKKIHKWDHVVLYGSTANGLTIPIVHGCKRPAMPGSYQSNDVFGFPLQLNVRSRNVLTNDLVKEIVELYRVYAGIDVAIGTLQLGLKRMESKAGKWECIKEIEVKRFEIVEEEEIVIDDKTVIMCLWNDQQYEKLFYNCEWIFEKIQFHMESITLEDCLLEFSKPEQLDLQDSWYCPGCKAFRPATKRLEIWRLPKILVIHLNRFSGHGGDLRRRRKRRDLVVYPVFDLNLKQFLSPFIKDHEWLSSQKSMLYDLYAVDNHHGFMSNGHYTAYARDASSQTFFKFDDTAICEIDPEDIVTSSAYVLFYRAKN

Ubp2-TAP (S. pombe) = molecular target: T4, Ubp2-TAP (S. pombe) (UniProt Q9P3U0); experiment: affinity purification with mass spectrometry; bait endogenously TAP-tagged at its C-terminus, tandem affinity purification from native S. pombe lysate, co-purified proteins identified by 2D LC-MS/MS; duplicates, only proteins found in both replicates
T4 sequence: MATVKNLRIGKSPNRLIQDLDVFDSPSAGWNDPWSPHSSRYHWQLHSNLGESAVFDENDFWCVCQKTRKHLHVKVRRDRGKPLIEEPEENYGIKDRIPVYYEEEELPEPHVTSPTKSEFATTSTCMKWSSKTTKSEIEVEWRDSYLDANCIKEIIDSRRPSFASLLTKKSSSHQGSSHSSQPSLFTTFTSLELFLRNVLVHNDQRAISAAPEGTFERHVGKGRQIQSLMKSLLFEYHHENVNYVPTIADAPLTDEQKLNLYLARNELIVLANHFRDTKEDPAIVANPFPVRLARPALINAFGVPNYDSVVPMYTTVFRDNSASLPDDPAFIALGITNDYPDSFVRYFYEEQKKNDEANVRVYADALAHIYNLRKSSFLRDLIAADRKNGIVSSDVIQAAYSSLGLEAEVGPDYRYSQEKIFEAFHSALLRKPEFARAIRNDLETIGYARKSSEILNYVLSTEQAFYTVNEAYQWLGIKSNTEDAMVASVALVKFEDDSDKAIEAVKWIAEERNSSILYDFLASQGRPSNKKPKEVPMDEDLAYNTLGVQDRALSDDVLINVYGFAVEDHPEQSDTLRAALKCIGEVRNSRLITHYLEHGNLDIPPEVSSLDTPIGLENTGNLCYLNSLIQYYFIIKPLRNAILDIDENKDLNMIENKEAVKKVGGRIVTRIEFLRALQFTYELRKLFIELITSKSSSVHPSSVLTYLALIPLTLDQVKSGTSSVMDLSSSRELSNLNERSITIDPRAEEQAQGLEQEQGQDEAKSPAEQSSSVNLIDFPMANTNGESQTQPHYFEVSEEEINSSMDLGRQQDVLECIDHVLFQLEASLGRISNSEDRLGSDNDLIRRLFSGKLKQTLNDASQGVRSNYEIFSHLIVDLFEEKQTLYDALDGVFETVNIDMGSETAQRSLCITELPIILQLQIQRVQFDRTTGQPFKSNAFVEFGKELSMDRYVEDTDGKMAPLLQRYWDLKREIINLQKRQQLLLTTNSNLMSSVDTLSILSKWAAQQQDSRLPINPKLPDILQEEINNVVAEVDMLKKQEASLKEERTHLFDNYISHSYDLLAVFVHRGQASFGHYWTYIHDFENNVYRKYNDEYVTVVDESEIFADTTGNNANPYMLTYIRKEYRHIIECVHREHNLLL

- binding (Otu1-TAP (S. pombe)): binds
Molecule: Cdc48 (from UniProt Q9P3A7 1-809)

- binding (Rpn11-TAP (S. pombe)): binds
- binding (Uch2-TAP (S. pombe)): binds
Molecule: Ecm29 (SPAC1782.01) (from UniProt Q9P7H8 1-1679)

- binding (TAP-Ubp1 (S. pombe)): binds
B1: Sif3 (protein, UniProt Q09877 1-472)
chain: MSTKDKLNLPPKRTINTRLSTPVHIPPPINSESTRITPQHGSPPRFGDHRISAAQGLFQRRRNARKIDHPLGWFLKNRHAAAHIPQRTTKTSQKLVLLPENHAVNSFNEEESNYEDLLTPSDAYNLIKLENLPRDKREELGFPRATAYCVCEAFQLPKVKHFLKHYHKVRAKKYDEVLYAVYHLPLVYGRSESCRVSSGPAPDDMPSSASNHNQKHLDSDKPDNENFDSHIISQLYRISEIFVFSYGVVVFWNFSLSQEKDILADLTFGGDNSLMVKPLAEEECEIEDLHFHYAPNTKRPRIYNDMIHIPSADNKMKLAMSHALAQSVKLSRFELRTDVTMNSALFYPKKLALYGHLGLSRVEVVRMSGHLFQLRVDVNLISNILDTPDFLWDSEPLLLPLYTAFREYLEIGPRTNVLNRRCKVIFDMLDIFGKSSADRKMNSITWIIIILISLFVIIFTLEVILRLRWAHR

- binding (Rpn11-TAP (S. pombe)): binds
- binding (Uch2-TAP (S. pombe)): no binding
B2: Rpn1302 (SPCC16A11.16c) (protein, UniProt Q9USM1 1-388)
chain: MESVFGRVRNETSERGKYGLVSVKAGKLQRKPGTNILQADHRKGVIYMQMASDELLHFYWKERARVSREVEDDYIIFPEEAEFIKIDECTTGRVYALKFKSSSQIHFYWMQEYSDEKDKETASLINQLIADPVNTTRTINSHNNSSSRGTDDSSTSQLLQLFGAASQDALQDFNWEVLSPTAEAPAILPRFPNVNESANMYRASSESNLNGPHATAGENGEDHEEATASPLDENIDYTHSRTLELLEQLQPLILNETTFVEPFSIDRESHRVITHPRVYPKIFPHSPSDLLRISGRAELSENRDFFKHLSSLMEAVAKPESESLREICNLSLEQVQSASGAELFLHALYDRLVNEGVIVISHITQEGSDGEVEEEGDVEMRESNEKDE

- binding (TAP-Ubp1 (S. pombe)): binds
B3: Sif2 (protein, UniProt O74446 1-382)
chain: MSNRIGPQRSTKTAAKLRLLPSTEEFDDFRRQDTGREVYSQIPQIEGSTAKRDAEHLGKRHREFLPRVTAYCTCDTFRVDLLFKFFQSRRSSHKTRPKQFDECIYSPYSYNNEETTDLLPDTLESSRGTLNRESSQESLQSIFEESGLDRNQPLFREVFCFTYGVVVLWGYTIDEEHRFLRELGRFEIEKLKIEDMEVEEFNYYITTLYQPRIFNDFIALRDASNYMIRLSISHAIAQSVKISLFEELVNETIDATKDTPQMIAETGRVNLKREEIMMAVGQLFILRININLQGSVLDSPELMWTEPQLEPIYTAARSYLEINQRVALLNQRVEVIGDLLSMLKEQITHTHDESLEWIVVILMGLLVLIALFSIVVDWKLFQ

- binding (Ubp2-TAP (S. pombe)): binds
B4: Ucp6 (protein, UniProt Q10187 1-612)
chain: MEDLDTKIKTLKNMGVSESDAKDSLERCGYDVESAAEFIFSGQLEKSRLVPIMSSTSIASSLPSYQDTFFLPSPRKRRRLPGRIGTVLKPSALFPAIAPFLFVVFEIPVALNTFVHATCKGLLFAEDNASFHRPFTDVSAHLSSSSLSKYNHHSNHRLASPGWWYGEDSCISQSLDPRSVMQVQTIRAFEFLFSSHRLYLDTVHITAALSQVLAGLGNTNTSMSDGDCIAAFLSSYFSPPNAEFDSTFCSTLSSLTNSEKPTYIFNFKPNSTPDLRLSIESCLDLLLHPPSSAQKNWSWIKHVGKVFCCSLPGNNASGTPRFLLTPKIDLSKCIIENRDEMLRRYQLETVYRKTLLEWEDLYKRLTGVTLTDKDIGELLTDGQQFLEKRNPALSSHLQLLKETLQTKISTLISNTNATQHKLSTLYRGMQNKCTRRLLAVIIEPSIIYICLKNSAVQSNRNVSPSANHNEQWYLVRFTTSATISQDSPPCIVEPVTFEEVDLEFEKHISYHNRLLIYVDDDCEASTRTVIPTSVKNFIAEDNEYFDDELAGIIHSPTVSTRSSRSSDVSEYDLEDQGGLQLTVPHINTDVQCHRSRNSACEFPESMHVEHSG

- binding (TAP-Ubp1 (S. pombe)): binds
B5: Ssr1 (protein, UniProt O13788 1-527)
chain: MSNVTENKHDLHENGVPDSAQPMELDVSKKEDTEPEVRDEAKEFLLSQLPQVEVPEWAQWFDFSKVHEIEKKQNPEFFDGKNTSKTPEVYKEYRDFMISTFRLNSKVYLTFTACRRNLAGDVCAVLRVHRFLEQWGLINYNVNPDTRPSKIGPPSTSHFQILADTPRGLVPLLPPPSSSIPRSKAVTIEDPSIVRTNIYDPSLDDVLKGKGSTPNQKPSLSNLHENNIDQSDSPQHCYCCGNKFNESYYQSQTAQKYNVCISCYQQNRFPSPTTIADYKEVAIQNKIEDDDTWTAQELVLLSEGVEMYSDDWAKVASHVNTKSVEECILKFLNLPSSDKALFKMDKVHTNPVVDSLQGKNPILSVVSFLAKMVPPSSFTQKSSAKEEESDKVKGESVYPKPESESYDVEMNGKSLEDSDSLSELYLTNEEKKMASIIKDSVNVQIKLIESKLSHFDYLDQHIRLKSQELDAFAQATYREKLYMKRECQNARKKIEQQLQSKDTAANGLPVQSSAETSVIPASSMSPS

Results are given in words; binding and its absence hold for the method and conditions named. Binding seen in cells or lysates may run through a third protein. Here binding means that the protein was enriched with, or labelled near, the bait; the list need not be complete. For part of these data: No binding means not detected with the bait. One block for each molecule: values may come before it.
